Results are given in words; binding and its absence hold for the method and conditions named. Binding seen in cells or lysates may run through a third protein. These calls come from enrichment with a bait or labelling near it, and not all partners need be listed. For part of these data: A no says only that the protein was not detected with the bait.
B1: TMEM43 (protein, UniProt Q9BTV4 1-400)
chain: MAANYSSTSTRREHVKVKTSSQPGFLERLSETSGGMFVGLMAFLLSFYLIFTNEGRALKTATSLAEGLSLVVSPDSIHSVAPENEGRLVHIIGALRTSKLLSDPNYGVHLPAVKLRRHVEMYQWVETEESREYTEDGQVKKETRYSYNTEWRSEIINSKNFDREIGHKNPSAMAVESFMATAPFVQIGRFFLSSGLIDKVDNFKSLSLSKLEDPHVDIIRRGDFFYHSENPKYPEVGDLRVSFSYAGLSGDDPDLGPAHVVTVIARQRGDQLVPFSTKSGDTLLLLHHGDFSAEEVFHRELRSNSMKTWGLRAAGWMAMFMGLNLMTRILYTLVDWFPVFRDLVNIGLKAFAFCVATSLTLLTVAAGWLFYRPLWALLIAGLALVPILVARTRVPAKKLE
B2: HMGB2 (protein, UniProt P26583 1-209)
chain: MGKGDPNKPRGKMSSYAFFVQTCREEHKKKHPDSSVNFAEFSKKCSERWKTMSAKEKSKFEDMAKSDKARYDREMKNYVPPKGDKKGKKKDPNAPKRPPSAFFLFCSEHRPKIKSEHPGLSIGDTAKKLGEMWSEQSAKDKQPYEQKAAKLKEKYEKDIAAYRAKGKSEAGKKGPGRPTGSKKKNEPEDEEEEEEEEDEDEEEEDEDEE
B3: TANK-binding kinase 1, Q9UHD2 1-729 (protein)
chain: MQSTSNHLWLLSDILGQGATANVFRGRHKKTGDLFAIKVFNNISFLRPVDVQMREFEVLKKLNHKNIVKLFAIEEETTTRHKVLIMEFCPCGSLYTVLEEPSNAYGLPESEFLIVLRDVVGGMNHLRENGIVHRDIKPGNIMRVIGEDGQSVYKLTDFGAARELEDDEQFVSLYGTEEYLHPDMYERAVLRKDHQKKYGATVDLWSIGVTFYHAATGSLPFRPFEGPRRNKEVMYKIITGKPSGAISGVQKAENGPIDWSGDMPVSCSLSRGLQVLLTPVLANILEADQEKCWGFDQFFAETSDILHRMVIHVFSLQQMTAHKIYIHSYNTATIFHELVYKQTKIISSNQELIYEGRRLVLEPGRLAQHFPKTTEENPIFVVSREPLNTIGLIYEKISLPKVHPRYDLDGDASMAKAITGVVCYACRIASTLLLYQELMRKGIRWLIELIKDDYNETVHKKTEVVITLDFCIRNIEKTVKVYEKLMKINLEAAELGEISDIHTKLLRLSSSQGTIETSLQDIDSRLSPGGSLADAWAHQEGTHPKDRNVEKLQVLLNCMTEIYYQFKKDKAERRLAYNEEQIHKFDKQKLYYHATKAMTHFTDECVKKYEAFLNKSEEWIRKMLHLRKQLLSLTNQCFDIEEEVSKYQEYTNELQETLPQKMFTASSGIKHTMTPIYPSSNTLVEMTLGMKKLKEEMEGVVKELAENNHILERFGSLTMDGGLRNVDCL

Chains of the proteins cited; added tags and fusions are not shown.
UniProt Q86WV6: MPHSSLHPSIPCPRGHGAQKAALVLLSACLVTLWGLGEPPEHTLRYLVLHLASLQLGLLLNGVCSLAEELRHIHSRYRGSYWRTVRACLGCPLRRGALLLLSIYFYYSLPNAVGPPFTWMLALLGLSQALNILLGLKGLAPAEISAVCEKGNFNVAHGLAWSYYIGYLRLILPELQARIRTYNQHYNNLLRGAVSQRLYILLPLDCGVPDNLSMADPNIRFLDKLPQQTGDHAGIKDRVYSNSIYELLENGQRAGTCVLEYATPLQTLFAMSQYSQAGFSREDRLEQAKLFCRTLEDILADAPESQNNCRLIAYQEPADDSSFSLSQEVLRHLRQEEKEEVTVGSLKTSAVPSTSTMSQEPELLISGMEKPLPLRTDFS

Key:
[1] = molecular target: Flag-STING-HA (Stimulator of Interferon Genes) (human) (UniProt Q86WV6); assay: affinity purification with mass spectrometry
[2] = molecular target: Flag-STING-HA (Stimulator of Interferon Genes) (human), Q86WV6; assay: affinity purification with mass spectrometry; settings: remark: other sources report otherwise

Binder	binding [1]	binding [2]
B1	binds	
B2	binds	
B3		no binding

— publication doi:10.1101/2020.07.11.196790
